Results are given in words; binding and its absence hold for the method and conditions named. Binding seen in cells or lysates may run through a third protein. Some binding calls cover weakened binding; strength is not graded here.
What was measured:
[1] = target: E2F1-VC155 (from pBiFC-E2F1-VC155) (UniProt Q01094); test: split reporter; BiFC; SH-SY5Y cells co-transfected with pBiFC-PARP1-VN173 and pBiFC-E2F1-VC155; confocal images
[2] = target: E2F transcription factor 1 (E2F1), endogenous (human (endogenous in SH-SY5Y)) (UniProt Q01094); test: co-IP; endogenous proteins in SH-SY5Y cells; antibodies specific for PARP1 or E2F1, bead-bound proteins analysed by Western blot; IgG-bound protein as negative control; also in cells stably transfected with mock, MZF1-AS1, sh-Scb or sh-MZF1-AS1 #2 and those treated with RNase A (20 µg)

Protein sequences, listed by entry. Tags and fused reporters are not part of them. Lines headed by an entry give the natural chain unless they say otherwise; changes in a name come on top.
UniProt Q01094: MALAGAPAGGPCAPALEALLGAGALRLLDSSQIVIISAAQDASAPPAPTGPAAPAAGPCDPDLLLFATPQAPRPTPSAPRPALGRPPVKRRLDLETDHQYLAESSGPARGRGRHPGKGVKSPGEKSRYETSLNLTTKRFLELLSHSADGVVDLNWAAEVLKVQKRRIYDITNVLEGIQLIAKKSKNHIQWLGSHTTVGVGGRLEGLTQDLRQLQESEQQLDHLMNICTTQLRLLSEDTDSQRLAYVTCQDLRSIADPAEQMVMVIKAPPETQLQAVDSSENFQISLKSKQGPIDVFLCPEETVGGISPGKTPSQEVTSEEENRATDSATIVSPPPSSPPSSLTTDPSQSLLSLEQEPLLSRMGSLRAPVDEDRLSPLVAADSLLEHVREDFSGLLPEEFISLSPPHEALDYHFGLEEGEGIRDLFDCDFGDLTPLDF
UniProt P09874: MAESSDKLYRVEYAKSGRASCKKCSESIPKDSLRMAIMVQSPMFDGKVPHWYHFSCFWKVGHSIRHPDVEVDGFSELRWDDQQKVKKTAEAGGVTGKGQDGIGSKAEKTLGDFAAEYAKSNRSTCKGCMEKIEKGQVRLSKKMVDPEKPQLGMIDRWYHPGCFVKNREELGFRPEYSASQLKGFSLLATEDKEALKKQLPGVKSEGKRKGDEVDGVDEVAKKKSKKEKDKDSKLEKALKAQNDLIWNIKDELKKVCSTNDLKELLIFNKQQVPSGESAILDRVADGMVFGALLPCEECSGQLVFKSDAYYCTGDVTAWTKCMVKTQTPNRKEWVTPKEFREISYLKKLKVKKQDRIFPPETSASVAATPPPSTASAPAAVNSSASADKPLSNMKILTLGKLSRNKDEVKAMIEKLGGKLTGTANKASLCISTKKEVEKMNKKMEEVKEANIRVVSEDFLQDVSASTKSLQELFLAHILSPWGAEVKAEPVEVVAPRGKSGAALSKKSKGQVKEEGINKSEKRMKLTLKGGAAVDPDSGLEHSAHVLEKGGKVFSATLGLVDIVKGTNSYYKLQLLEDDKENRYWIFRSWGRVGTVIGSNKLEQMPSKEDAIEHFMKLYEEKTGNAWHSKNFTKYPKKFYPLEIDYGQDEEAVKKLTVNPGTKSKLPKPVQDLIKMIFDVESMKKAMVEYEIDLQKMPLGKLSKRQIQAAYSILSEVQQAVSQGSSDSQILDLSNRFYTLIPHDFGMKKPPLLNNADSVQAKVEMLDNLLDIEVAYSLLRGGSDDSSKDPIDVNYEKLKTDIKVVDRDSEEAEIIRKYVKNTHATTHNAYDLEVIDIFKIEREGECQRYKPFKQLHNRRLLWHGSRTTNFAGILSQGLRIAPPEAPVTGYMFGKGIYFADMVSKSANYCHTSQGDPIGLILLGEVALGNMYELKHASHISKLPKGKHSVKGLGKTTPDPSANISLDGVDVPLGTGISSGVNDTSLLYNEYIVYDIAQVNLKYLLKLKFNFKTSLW

Row | binding [1] | binding [2] | Substance
1 | binds | – | PARP1-VN173 (from pBiFC-PARP1-VN173) (from UniProt P09874 1-1014)
2 | – | binds | poly(ADP-ribose) polymerase 1 (PARP1), endogenous (from UniProt P09874 1-1014)
